Reference: publication PMC12362813
Results are given in words; binding and its absence hold for the method and conditions named. In cells and extracts the contact can be indirect. Some results given as binding are weak or reduced against the parent protein; the word gives no strength.

Target: T1, STUB1 (endogenous) (human (endogenous in HeLa and SiHa)), Q9UNE7
T1 chain: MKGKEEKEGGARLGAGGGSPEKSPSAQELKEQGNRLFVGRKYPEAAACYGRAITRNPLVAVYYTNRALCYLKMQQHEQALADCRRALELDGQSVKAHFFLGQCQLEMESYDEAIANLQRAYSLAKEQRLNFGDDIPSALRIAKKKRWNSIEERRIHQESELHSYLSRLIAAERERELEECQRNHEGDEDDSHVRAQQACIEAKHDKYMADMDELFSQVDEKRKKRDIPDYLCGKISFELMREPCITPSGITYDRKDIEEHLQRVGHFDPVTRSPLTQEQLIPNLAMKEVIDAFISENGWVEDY
Test: co-IP; endogenous proteins in HeLa and SiHa cells; IP with antibodies against STING, BAG2 or STUB1, IgG control; MG132 (10 µM) for 6 h; Western blot; also after siBAG2 knock-down (more STUB1 with STING)
Settings: remark: other sources report otherwise

B1: BAG2 (endogenous), O95816 1-211 (protein)
chain: MAQAKINAKANEGRFCRSSSMADRSSRLLESLDQLELRVEALREAATAVEQEKEILLEMIHSIQNSQDMRQISDGEREELNLTANRLMGRTLTVEVSVETIRNPQQQESLKHATRIIDEVVNKFLDDLGNAKSHLMSLYSACSSEVPHGPVDQKFQSIVIGCALEDQKKIKRRLETLLRNIENSDKAIKLLEHSKGAGSKTLQQNAESRFN
binding: binds
